# Values of other authors in patent US20210386733A1, “LYSINE-SPECIFIC HISTONE DEMETHYLASE INHIBITORS FOR THE TREATMENT OF MYELOPROLIFERATIVE NEOPLASMS” (Imago Biosciences, Inc., priority 2019, published 2021).
# For at least one compound, name, drawing or mass did not settle the structure.
# Tested on: primary myelofibrosis patients
# Settings: intermediate and high-risk MF patients; cited from earlier work
smiles,measurement,value
"N#CC[C@H](C1CCCC1)n1cc(-c2ncnc3[nH]ccc23)cn1 [Ruxolitinib, ruxolitinib]",patients with spleen size or volume reduced by 35%,approximately 50%
